Results published in PubChem BioAssay (Tox21).
Inconclusive results, whose numbers are uncertain, are shown with a selection of clear calls. Potencies of inconclusive entries are doubtful fits and often do not repeat. Active and inactive are the calls of the source. The call rests on the fitted dose curve.

Amino acid sequences for entries named in this document (tags omitted). A change or cut given only in a name is not applied to a line headed by its entry.
UniProt P19793: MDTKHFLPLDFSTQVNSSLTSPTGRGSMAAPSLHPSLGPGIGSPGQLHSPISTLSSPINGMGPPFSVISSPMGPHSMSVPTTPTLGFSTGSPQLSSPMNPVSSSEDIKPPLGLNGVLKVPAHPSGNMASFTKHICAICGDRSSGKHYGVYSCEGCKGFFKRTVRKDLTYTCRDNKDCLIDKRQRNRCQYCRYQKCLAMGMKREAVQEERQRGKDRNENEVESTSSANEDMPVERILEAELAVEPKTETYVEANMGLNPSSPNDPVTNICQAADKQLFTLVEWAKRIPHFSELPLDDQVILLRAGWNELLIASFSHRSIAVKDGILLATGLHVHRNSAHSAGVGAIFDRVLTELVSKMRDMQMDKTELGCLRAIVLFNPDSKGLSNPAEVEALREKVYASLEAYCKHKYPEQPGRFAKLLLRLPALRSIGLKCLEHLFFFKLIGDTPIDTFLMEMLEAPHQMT

biological target: Retinoic acid receptor RXR-alpha (Homo sapiens) (UniProt P19793); experiment: qHTS assay to identify small molecule agonists of the RXR signaling pathway (AID 1159527); details: HEK293T RXRa-UAS-bla, beta-lactamase ratio, 16 h; activation: at 76.8 µM (top of the series) unless noted; further: nearly all actives have a fitted effect of over 35% in size
Method in brief: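 Agonist-mode beta-lactamase reporter assay: HEK 293T RXR-alpha-UAS-bla cells treated 16 hr at 37 C with compounds, 9-cis retinoic acid as positive control. LiveBLAzer FRET substrate, 405 nm excitation, 460/530 nm emission.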
On the % scale 0 is the no-effect control and ±100 the full control effect; potency means the concentration at half of the fitted maximal effect.

Q: `CC(C)c1ccc2oc3nc(N)c(C(=O)O)cc3c(=O)c2c1` was tested. Which Potency did it give?
A: The Potency was inconclusive: 26.8 µM.

Q: How did the Potency turn out when `N#CCC(=O)O` was run?
A: Its Potency is inconclusive: 54.9 µM [partial curve, poor fit].

Q: `Nc1ccc2ccccc2c1S(=O)(=O)O` was tested. Which Potency did it give?
A: The Potency was inconclusive: 49.9 µM [rising, partial curve, poor fit].

Q: How did the Potency turn out when `CCCCCCc1ccc(-c2ccc(C#N)cc2)cc1` was run?
A: The Potency was inconclusive: 7.63 µM [inhibitor, partial curve, poor fit].

Q: With `CC(C)(c1ccc(Oc2ccc3c(c2)C(=O)OC3=O)cc1)c1ccc(Oc2ccc3c(c2)C(=O)OC3=O)cc1` as the compound, how does the Potency read?
A: Its Potency is active: 13.7 µM.

Q: Which “activation” value does the source give for `CN1C(=O)N(C)C(O)C1O` (centres undefined) here?
A: The value was inactive: 6.22%.

Q: Which Potency does the source give for `O=C(O)c1ccccc1NCCc1ccccc1` here?
A: The Potency was inconclusive: 30.1 µM [activator, partial curve, poor fit].

Q: How did the activation turn out when `C[C@H](N)C(=O)N[C@@H](C)C(=O)NC1[C@H]2CN(c3nc4c(cc3F)c(=O)c(C(=O)O)cn4-c3ccc(F)cc3F)C[C@@H]12` (some centres undefined) was run?
A: The activation was inconclusive: 18.4% [at 35.3 µM].

Q: `CC1=NN(c2cc(S(=O)(=O)O)ccc2Cl)C(=O)C1N=Nc1ccccc1` (centres undefined) was tested. Which “activation” value did it give?
A: Its value is inactive: -13%.

Q: Which Potency does the source give for `Fc1c(F)c(F)c(Br)c(F)c1F` here?
A: The Potency was inconclusive: 21.9 µM [activator, partial curve, poor fit].

Q: For `C[C@H]1O[C@@H](n2cc(F)c(=O)[nH]c2=O)[C@H](O)[C@@H]1O`, which activation is on record?
A: The activation was inconclusive: 11.4% [at 35.3 µM].

Q: Which “activation” value does the source give for `CCOC(=O)c1ccc(C)cc1` here?
A: Its value is inactive: 0.805%.

Q: For `COc1cc2nc(N3CCN(C(=O)C4CCCO4)CC3)nc(N)c2cc1OC` (centres undefined), which “activation” value is on record?
A: Its value is inactive: 10.4% [at 35.3 µM].

Q: `CCCCCC(=O)O` was tested. Which activation did it give?
A: Its activation is inconclusive: 11.2%.

Q: How did the Potency turn out when `Cc1nc2ccccc2n1Cc1ccc(Cl)cc1` was run?
A: Its Potency is inconclusive: 0.952 µM [inhibitor, full curve].

Q: Which Potency does the source give for `O=S(=O)(O)NC1CCCCC1` here?
A: Its Potency is inconclusive: 54.9 µM [activator, partial curve, poor fit].

Q: `CC(S)C(=O)NCC(=O)O` (centres undefined) was tested. Which “activation” value did it give?
A: The value was inactive: 6.03% [at 35.3 µM].

Q: Which “activation” value does the source give for `COC(=O)c1ccc(C)cc1C1=NC(C)(C(C)C)C(=O)N1` (centres undefined) here?
A: Its value is inactive: -0.633%.

Q: For `c1ccc(OCc2ccc(CCCN3CCOCC3)cc2)cc1`, which Potency is on record?
A: Its Potency is inconclusive: 0.952 µM [inhibitor, partial curve, poor fit].

Q: How did the activation turn out when `O=C(OCCOCCOCCOC(=O)c1ccccc1)c1ccccc1` was run?
A: Its activation is inconclusive: -23.3%.

Q: Which “activation” value does the source give for `CC(C)C[C@H](NC(=O)OCC1c2ccccc2-c2ccccc21)C(=O)O` here?
A: The value was inactive: 1.2%.

Q: For `CC(=O)NCCCS(=O)(=O)O`, which activation is on record?
A: The activation was inconclusive: 11.9% [at 35.3 µM].

Q: How did the “activation” value turn out when `CCC(C)C(C)=O` (centres undefined) was run?
A: The value was inactive: -4.02%.

Q: Which Potency does the source give for `CCOC(=O)CC(=O)OCC` here?
A: The Potency was “inactive”.

Q: With `C=Cc1ccc(C)cc1` as the compound, how does the Potency read?
A: Its Potency is inconclusive: 44.9 µM [activator, partial curve].

Q: `CC(C)CCCCCOC(=O)CCCCC(=O)OCCCCCC(C)C` was tested. Which activation did it give?
A: The activation was inconclusive: 15.2%.

Q: Which Potency does the source give for `O=C(O)c1cccnc1Nc1cccc(C(F)(F)F)c1` here?
A: Its Potency is inconclusive: 26.8 µM [activator].

Q: `CCCCCCCCCCCCC(=O)O` was tested. Which Potency did it give?
A: The Potency was inconclusive: 5.52 µM [fluorescent, full curve, poor fit].

Q: How did the activation turn out when `CC(=O)OC/C=C(\C)CC/C=C(\C)CCC=C(C)C` was run?
A: The activation was inconclusive: -21.8%.

Q: With `CC(C)OC(=O)CCCCC(=O)OC(C)C` as the compound, how does the “activation” value read?
A: Its value is inactive: 9.89%.

Q: For `Cc1cccc(C)c1NC(=O)CN1CCCC1`, which “activation” value is on record?
A: Its value is inactive: 0.402% [at 35.3 µM].

Q: For `CCCCCOC(=O)c1ccc(O)cc1`, which “activation” value is on record?
A: The value was inactive: -16%.

Q: Which “activation” value does the source give for `NNc1nnc(NN)c2ccccc12` here?
A: The value was inactive: 10.1% [at 35.3 µM].

Q: How did the “activation” value turn out when `OC[C@H](Cc1cccc(O)c1)[C@H](CO)Cc1cccc(O)c1` was run?
A: Its value is inactive: 0.447%.

Q: `CC(C)(CCl)c1ccccc1` was tested. Which activation did it give?
A: Its activation is inconclusive: -23.8%.

Q: How did the “activation” value turn out when `CNC(=O)Nc1ccc(Cl)c(Cl)c1` was run?
A: Its value is inactive: 7.18%.

Q: `CC(C)C(=O)O` was tested. Which “activation” value did it give?
A: Its value is inactive: 5.3%.

Q: For `CC(CCO)CC(C)(C)C` (centres undefined), which Potency is on record?
A: Its Potency is “inactive”.

Q: With `CC(C)(C)c1ccc(OC(=O)c2ccccc2O)cc1` as the compound, how does the Potency read?
A: The Potency was inconclusive: 34.7 µM [inhibitor, partial curve].
